Data taken from patent US20070082858A1, “Methods and compositions for the prevention of toxic side effects of aminoglycoside medications” (priority 2004, published 2007).

Legend:
MDCK cells = assay: GTTR uptake, distribution and saturability in MDCK cells (2 hours); format: cell-based, canine; settings: 1 μg/mL, 37° C., 2-2.5 hours
Procedure: MDCK cells were treated with 1 μg/ml purified GTTR for […] in complete medium at 37° C., then washed 3× with complete medium.
Both OK and MDCK cells were used in these studies. Both cell lines were treated with GTTR at 1 μg/ml in complete culture medium for two hours at either 37° C. or over ice. These cells were also treated with a dose range of 0 to 4000 μg/ml of unlabeled GT. Cells were washed and imaged live, then fixed with FATX, and washed again with buffer prior to re-imaging (as in FIG. 6, A3). […] Thus, cytoplasmic, but not endosomal, uptake of GTTR was saturable.
GTTR treatment: Subconfluent MDCK or OK cells were treated with 1 μg/mL of GTTR, in complete medium, for 2 hours at 37° C. or on ice. (The amount of GTTR is expressed as the weight of the gentamicin moiety within the conjugate.) In competition experiments, MDCK cells were simultaneously treated with unlabeled gentamicin (up to 4 mg/mL) for 2 hours.
Fixation, delipidation, and washing: After treatment, cells were washed three times with complete medium, and then immediately imaged live (see below; FIG. 27A), or fixed. […] Alternatively, cells were fixed in 4% formaldehyde alone (FA), washed and imaged (FIG. 27C), prior to delipidated with 0.5% Triton X-100 in PBS, washed thoroughly, and imaged again (FIG. 27D). […]

[1] = PIP2 quenching of GTTR and TR fluorescence (fixed cells and 3-d scanning fluorescence spectroscopy)
Procedure: PIP2: Monolayer MDCK cells were grown in coverglass chambers as described above. After fixation, delipidation, washing and imaging (FIG. 27B), cells were treated with 1 mg/mL phosphatidylinositol-4,5-bisphosphate (PIP2, Echelon Biosciences, Salt Lake City, Utah) for 1.5 hours and re-imaged (FIG. 27E), prior to a second delipidation with 0.5% Triton, washing and imaging again (FIG. 27F).
Spectrophotometry: 3-d scanning fluorescence spectroscopy of solutions containing TR or GTTR with or without (PIP2) were performed using a Safire fluorescence microplate reader (Tecan, Research Triangle Park, N.C.). GTTR (100 μg/mL; weight as gentamicin in molecule) and PIP2 (155 μg/mL; approximately equimolar) were mixed vigorously in PBS solution and allowed to stand at room temperature for ½ hour prior to scanning. This was compared to the same concentration of GTTR alone in solution. Similar hydrolyzed Texas Red solutions (at the same concentration as the Texas Red moiety in GTTR solutions), with or without PIP2, were used as controls. Excitation and emission spectra were obtained over an excitation range of 570-604 nm (bandwidth 5 nm) and an emission range of 610-650 nm (bandwidth 5 nm).

| Compound | intracellular distribution of fluorescence after FATX fixation (MDCK cells; fixed with formaldehyde plus 0.5% Triton X-100) | intracellular distribution of fluorescence in live cells (MDCK cells; imaged live) | TR fluorescence in solution ([1]; PIP2 combined with TR alone in solution) | GTTR fluorescence in solution ([1]; PIP2 in solution with GTTR, excitation 570-604 nm, emission 610-650 nm) |
| --- | --- | --- | --- | --- |
| O=S(=O)([O-])c1cc(S(=O)(=O)O)ccc1C1=c2cc3c4c(c2Oc2c1cc1c5c2CCCN5CCC1)CCC[N+]=4CCC3 [hydrolyzed TR, Texas Red] | not after FATX treatment | fluorescently-labeled vesicles |  |  |
| phosphatidylinositol-4,5-bisphosphate [PIP2] |  |  | no such quenching effect was observed | quenching effect at all wavelengths |
